Data on one molecule can be found in patent US20080227698A1, “OLIGOPEPTIDES FOR TREATMENT OF OSTEOPOROSIS AND OTHER BONE DISEASES AND METHODS THEREOF” (Washington University, priority 2005, published 2008).

By UniProt entry, the sequences of proteins in these tests, tags left out. Residues count along the entry.
UniProt O75581, residues 20-1613: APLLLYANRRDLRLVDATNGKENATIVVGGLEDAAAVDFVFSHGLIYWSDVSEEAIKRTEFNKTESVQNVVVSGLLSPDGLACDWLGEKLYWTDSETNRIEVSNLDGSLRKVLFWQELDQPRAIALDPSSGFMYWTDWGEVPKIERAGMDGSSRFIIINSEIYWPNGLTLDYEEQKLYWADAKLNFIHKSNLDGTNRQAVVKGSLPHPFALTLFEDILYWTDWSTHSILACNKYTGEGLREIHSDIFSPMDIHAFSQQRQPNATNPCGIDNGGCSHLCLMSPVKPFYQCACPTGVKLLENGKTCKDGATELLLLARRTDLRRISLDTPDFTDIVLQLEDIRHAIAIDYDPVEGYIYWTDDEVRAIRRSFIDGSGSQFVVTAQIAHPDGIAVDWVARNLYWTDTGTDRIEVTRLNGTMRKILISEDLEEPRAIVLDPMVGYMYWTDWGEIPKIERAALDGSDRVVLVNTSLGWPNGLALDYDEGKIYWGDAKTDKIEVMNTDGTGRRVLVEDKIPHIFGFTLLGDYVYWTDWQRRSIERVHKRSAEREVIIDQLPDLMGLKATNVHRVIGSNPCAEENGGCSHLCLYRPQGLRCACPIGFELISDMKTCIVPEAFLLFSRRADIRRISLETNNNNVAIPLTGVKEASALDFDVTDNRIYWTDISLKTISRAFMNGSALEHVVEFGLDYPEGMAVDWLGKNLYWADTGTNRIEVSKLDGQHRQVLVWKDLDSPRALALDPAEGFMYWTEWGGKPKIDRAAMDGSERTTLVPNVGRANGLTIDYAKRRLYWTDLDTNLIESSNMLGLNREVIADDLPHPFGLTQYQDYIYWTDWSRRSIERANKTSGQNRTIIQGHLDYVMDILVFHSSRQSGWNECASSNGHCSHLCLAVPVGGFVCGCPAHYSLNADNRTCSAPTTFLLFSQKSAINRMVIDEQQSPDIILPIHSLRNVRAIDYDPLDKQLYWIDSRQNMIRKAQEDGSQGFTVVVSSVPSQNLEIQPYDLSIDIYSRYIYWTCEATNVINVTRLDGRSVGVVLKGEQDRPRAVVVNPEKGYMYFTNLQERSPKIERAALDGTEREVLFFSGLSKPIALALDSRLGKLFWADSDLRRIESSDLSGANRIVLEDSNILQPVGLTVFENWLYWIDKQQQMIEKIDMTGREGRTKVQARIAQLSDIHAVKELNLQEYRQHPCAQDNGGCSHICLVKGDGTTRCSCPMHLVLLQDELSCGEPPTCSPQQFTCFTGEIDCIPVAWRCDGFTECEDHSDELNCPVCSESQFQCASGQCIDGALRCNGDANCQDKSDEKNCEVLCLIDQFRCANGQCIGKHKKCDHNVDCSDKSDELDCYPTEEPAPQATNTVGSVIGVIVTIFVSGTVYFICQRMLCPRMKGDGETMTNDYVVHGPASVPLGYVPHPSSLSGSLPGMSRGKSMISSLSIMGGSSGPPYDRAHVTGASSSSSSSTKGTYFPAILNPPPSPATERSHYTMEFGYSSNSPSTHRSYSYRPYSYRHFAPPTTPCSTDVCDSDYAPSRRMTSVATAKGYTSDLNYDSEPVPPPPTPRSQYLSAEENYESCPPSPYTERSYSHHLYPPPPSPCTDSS

For experiment [1], the target named is LRP6 on LRP6-transduced HT1080 cells (HA-tagged) (UniProt O75581). The experiment in a line: 125I-Mesd (150-195) binding to LRP6-transduced HT1080 cells (FIG. 4).
Experiment [2] shares this target. The experiment in a line: 125I-Mesd (150-195), 5 nM, binding to LRP6-transduced HT1080 cells, 3 h at 4 C.

No constants are given. Whether binding was seen depends on the method and setting. Some entries that bind do so weakly or less than the wild type.

With QMYPGKGGGSKEKNKTKPEKAKKKEGDPKPRASKEDNRAGSRREDL (peptide, not shown: small tags and cut ends, 125I-iodinated when used as radioligand) [Mesd (150-195)], the binding entry in experiment [1] and in experiment [2] was “binds” each time.
